Data set [1] in a line: Incorporation of TRC into hair fibres (washed fibres, fluorimetry after hair solubilisation). Conditions: 24 h room temperature. The protocol: (§1) In each experiment, unpigmented hair fibres were used as clippings of 2-5 mm in length. Hair fibres from a greying male were obtained and the unpigmented hairs manually separated from the pigmented. Only unpigmented hairs were used in these studies. Aliquots of approximately 5 mg of dry unpigmented hair fibres with an average length of 5 mm were placed into Eppendorf tubes. 50 μl of assay mixture containing 100 mM Tris.HCl pH 8.5, 5 mM CaCl2, 10 mM DTT, 0.5% (w/v) Triton X-100 was added to each sample. The assay mixture was made up fresh each time from 1 M stocks of Tris pH8.5, CaCl2 (both stored at room temperature) and DTT (stored at −20° C.) and 10% Triton X-100 (stored at 4° C.). 50 μl of 2 or 4 mM Texas Red-cadaverine (Molecular Probes) (TRC; 10 mM stock in DMSO stored at −20° C.) was then added to each sample to give a final concentration of 2 mM of TRC. After 10 min of incubation at room temperature, the assay mixture was removed and the fibres were rinsed briefly in 1 ml of 0.1% Triton X-100. Hair fibres were recovered by centrifugation at 13,000 rpm for 10 seconds and the wash solution was removed. The fibres were then spread over the inner surface of the tube and left to dry at room temperature for 1 hour. Following the fibre drying step, 50μl of water was added to the bottom of each tube to maintain humidity, and the tubes were sealed and incubated at room temperature for 24 hours from the time the assay solutions were applied. The aim of this 24-hour post incubation was to allow an additional incorporation of TRC within the fibre. Once this incubation had been completed, fibres were washed three times in 1 ml of 0.1% Triton-X100 for 20 min at 95° C. (total wash time: 60 min). In some experiments one set of samples was not washed in order to quantitate the penetration of TRC within the fibre. At this step of the experiment photographs were taken in order to compare the intensity of the colour change by human eye between the different conditions tested. Fibres were then solubilised by the addition of 1 ml of 90% soluene and incubated at room temperature until complete solubilization had occurred (48 hours) in parallel with a standard curve of TRC (0.1-5 μM, final concentration). The penetration or incorporation of TRC into hair fibres was measured by fluorimetry at 580 nm excitation and 598 nm emission after dilution of the samples 2-fold with 90% soluene. TRC (2 mM final) was applied for 10 minutes from: (i) the assay mixture described above; (ii) water; (iii) Tris (100 mM final); (iv) Triton X-100 (0.5% final); (v) CaCl2 (5 mM final); and (vi) DTT (10 mM). Fibres were then rapidly rinsed and incubated at room temperature for 24 hours. Penetration and incorporation of TRC into the fibres were measured by fluorimetry after hair solubilisation. The effect of pH on penetration and incorporation of TRC were also studied. TRC (2 mM final) was applied for 10 minutes from: (i) assay mixture as described above; (ii) Tris (100 mM final); (iii) Tris plus 10 mM DTT; or(iv) water. Fibres were then rapidly rinsed and incubated at room temperature for 24 hours. Penetration and incorporation were measured by fluorimetry after hair solubilisation.

The nature of data set [2]: Penetration of TRC into hair fibres (unwashed fibres, fluorimetry after hair solubilisation). Conditions: 24 h room temperature. The protocol:
as §1

Where [3] appears, read: Example 1, TRC 2 mM final applied 10 min from Assay Mixture (100 mM Tris.HCl pH 8.5, 5 mM CaCl2, 10 mM DTT, 0.5% Triton X-100).
Setting [4] is: Example 1, TRC 2 mM final applied 10 min from CaCl2 (5 mM final).
The mark [5] stands for this setting: Example 1, TRC 2 mM final applied 10 min from DTT (10 mM).
Where [6] appears, read: Example 1, TRC 2 mM final applied 10 min from Tris (100 mM final).
[7] abbreviates: Example 1, TRC 2 mM final applied 10 min from Triton X-100 (0.5% final).
The mark [8] stands for this setting: Example 1, TRC 2 mM final applied 10 min from Water.
The mark [9] stands for this setting: Example 2, TRC 2 mM final applied 10 min from Assay Mixture.
The mark [10] stands for this setting: Example 2, TRC 2 mM final applied 10 min from Tris (100 mM final).
The mark [11] stands for this setting: Example 2, TRC 2 mM final applied 10 min from Tris plus 10 mM DTT.
The mark [12] stands for this setting: Example 2, TRC 2 mM final applied 10 min from Water.

The record followed here is US20030037385A1, “Hair colouring compositions” (Unilever Home & Personal Care USA, Division of Conopco, Inc., priority 2001, published 2003).

Turning to Texas Red-cadaverine [TRC], the Incorporation in data set [1] (setting [3]) was found to be 730 pmol/mg; in data set [1] (setting [4]) it was 10 pmol/mg; in data set [1] (setting [5]), 60 pmol/mg; in data set [1] (setting [6]), 70 pmol/mg; in data set [1] (setting [7]) it was 10 pmol/mg; in data set [1] (setting [8]) it was 40 pmol/mg. Moreover, the Incorporation is 450 pmol/mg in data set [1] (setting [9]), 120 pmol/mg in data set [1] (setting [10]), 1,300 pmol/mg in data set [1] (setting [11]) and 220 pmol/mg in data set [1] (setting [12]). Also, the Penetration is on record as 11,000 pml/mg in data set [2] (setting [3]); 1,500 pml/mg in data set [2] (setting [4]); 3,750 pml/mg in data set [2] (setting [5]); 5,500 pml/mg in data set [2] (setting [6]); 1,500 pml/mg in data set [2] (setting [7]); 3,500 pml/mg in data set [2] (setting [8]). The Penetration in data set [2] (setting [9]) was 7,500 pml/mg; in data set [2] (setting [10]) it was 4,000 pml/mg; in data set [2] (setting [11]), 19,000 pml/mg; in data set [2] (setting [12]), 3,500 pml/mg.
